Reference: the supplement of paper PMC10849652
This is one part of the list.

Protein sequences, listed by entry. Tags and fused reporters are not part of them. Lines headed by an entry give the natural chain unless they say otherwise; changes in a name come on top.
UniProt Q9BZL6: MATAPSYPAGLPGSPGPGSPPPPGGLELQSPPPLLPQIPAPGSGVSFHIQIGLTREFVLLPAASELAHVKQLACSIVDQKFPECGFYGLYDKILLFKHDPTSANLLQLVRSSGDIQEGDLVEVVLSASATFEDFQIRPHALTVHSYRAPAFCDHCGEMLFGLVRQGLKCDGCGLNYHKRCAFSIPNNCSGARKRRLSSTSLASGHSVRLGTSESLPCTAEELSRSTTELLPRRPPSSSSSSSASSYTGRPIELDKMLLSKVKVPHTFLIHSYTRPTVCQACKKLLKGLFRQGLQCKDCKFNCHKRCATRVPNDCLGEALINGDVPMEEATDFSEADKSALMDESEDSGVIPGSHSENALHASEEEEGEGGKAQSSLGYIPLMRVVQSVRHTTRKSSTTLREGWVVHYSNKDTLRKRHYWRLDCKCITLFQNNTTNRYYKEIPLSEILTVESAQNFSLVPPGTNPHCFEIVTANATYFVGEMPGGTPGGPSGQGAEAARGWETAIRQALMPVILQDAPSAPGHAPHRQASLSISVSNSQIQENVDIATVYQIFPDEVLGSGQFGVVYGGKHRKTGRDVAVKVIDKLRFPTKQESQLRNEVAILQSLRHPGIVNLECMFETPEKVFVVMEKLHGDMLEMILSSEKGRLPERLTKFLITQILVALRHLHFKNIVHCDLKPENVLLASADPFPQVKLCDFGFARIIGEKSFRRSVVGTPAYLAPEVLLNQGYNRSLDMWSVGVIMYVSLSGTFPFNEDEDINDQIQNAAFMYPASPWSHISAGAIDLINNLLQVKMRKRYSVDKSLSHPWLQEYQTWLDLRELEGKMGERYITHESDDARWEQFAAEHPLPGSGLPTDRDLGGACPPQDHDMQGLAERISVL
UniProt Q9BZL4: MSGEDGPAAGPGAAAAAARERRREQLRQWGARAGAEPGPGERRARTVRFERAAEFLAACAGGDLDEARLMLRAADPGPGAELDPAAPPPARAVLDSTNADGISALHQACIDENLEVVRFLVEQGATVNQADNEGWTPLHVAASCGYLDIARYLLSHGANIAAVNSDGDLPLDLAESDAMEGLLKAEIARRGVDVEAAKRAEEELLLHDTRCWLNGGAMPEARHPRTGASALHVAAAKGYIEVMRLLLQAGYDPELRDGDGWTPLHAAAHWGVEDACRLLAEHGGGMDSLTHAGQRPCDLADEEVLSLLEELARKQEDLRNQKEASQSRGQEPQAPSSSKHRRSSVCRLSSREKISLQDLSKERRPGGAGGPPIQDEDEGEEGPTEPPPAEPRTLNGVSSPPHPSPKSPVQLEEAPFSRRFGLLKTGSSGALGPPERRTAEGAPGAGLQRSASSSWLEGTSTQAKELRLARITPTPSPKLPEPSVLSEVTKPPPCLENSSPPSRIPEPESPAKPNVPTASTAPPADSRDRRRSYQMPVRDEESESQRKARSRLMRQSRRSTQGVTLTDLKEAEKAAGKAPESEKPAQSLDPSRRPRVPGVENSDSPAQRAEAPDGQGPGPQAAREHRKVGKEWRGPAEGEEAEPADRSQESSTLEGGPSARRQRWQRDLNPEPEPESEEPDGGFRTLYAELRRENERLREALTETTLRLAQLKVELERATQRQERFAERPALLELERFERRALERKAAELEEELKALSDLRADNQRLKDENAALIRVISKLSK
UniProt P14314: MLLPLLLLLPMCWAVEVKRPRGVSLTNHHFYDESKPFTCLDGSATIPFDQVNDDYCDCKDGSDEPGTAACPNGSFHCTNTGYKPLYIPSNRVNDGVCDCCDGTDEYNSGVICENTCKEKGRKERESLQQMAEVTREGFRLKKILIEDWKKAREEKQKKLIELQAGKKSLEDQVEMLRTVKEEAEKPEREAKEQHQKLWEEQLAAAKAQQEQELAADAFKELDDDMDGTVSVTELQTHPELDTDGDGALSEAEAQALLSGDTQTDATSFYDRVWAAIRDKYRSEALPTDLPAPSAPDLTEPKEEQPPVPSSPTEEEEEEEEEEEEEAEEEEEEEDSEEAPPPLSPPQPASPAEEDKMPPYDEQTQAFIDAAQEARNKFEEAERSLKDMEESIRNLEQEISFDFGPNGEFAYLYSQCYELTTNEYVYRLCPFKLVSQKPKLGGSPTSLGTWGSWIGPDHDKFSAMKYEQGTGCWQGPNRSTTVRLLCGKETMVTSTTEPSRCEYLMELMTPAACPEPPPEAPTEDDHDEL
UniProt Q99633: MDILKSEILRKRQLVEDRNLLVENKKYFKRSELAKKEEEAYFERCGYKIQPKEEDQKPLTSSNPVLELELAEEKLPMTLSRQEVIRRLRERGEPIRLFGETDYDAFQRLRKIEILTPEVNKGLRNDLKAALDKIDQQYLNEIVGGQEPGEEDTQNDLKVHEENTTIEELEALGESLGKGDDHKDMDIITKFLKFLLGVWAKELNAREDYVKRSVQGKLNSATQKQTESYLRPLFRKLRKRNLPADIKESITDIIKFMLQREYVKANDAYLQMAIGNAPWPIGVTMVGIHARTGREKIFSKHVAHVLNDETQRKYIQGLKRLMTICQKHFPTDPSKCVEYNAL
UniProt P32119: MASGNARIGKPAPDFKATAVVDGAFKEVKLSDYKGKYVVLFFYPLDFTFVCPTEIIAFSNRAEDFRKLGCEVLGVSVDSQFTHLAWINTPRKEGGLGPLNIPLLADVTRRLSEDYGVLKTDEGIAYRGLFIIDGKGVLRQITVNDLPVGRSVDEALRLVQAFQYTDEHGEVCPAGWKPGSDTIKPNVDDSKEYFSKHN
UniProt P48454, whole entry, looked up: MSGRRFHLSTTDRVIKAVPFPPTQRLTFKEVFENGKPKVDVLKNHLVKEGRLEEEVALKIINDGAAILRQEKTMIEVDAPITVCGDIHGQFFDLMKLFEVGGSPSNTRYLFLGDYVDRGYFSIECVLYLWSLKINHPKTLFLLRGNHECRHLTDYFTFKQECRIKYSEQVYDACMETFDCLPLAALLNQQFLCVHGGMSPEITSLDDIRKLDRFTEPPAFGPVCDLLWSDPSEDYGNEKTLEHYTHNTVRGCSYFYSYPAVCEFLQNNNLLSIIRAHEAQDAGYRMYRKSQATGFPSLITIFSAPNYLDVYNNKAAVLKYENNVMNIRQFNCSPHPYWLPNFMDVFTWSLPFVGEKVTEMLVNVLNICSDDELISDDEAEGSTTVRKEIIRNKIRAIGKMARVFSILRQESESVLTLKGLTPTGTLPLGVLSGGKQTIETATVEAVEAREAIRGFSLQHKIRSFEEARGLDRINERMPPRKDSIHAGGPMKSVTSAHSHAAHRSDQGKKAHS
UniProt Q9Y570: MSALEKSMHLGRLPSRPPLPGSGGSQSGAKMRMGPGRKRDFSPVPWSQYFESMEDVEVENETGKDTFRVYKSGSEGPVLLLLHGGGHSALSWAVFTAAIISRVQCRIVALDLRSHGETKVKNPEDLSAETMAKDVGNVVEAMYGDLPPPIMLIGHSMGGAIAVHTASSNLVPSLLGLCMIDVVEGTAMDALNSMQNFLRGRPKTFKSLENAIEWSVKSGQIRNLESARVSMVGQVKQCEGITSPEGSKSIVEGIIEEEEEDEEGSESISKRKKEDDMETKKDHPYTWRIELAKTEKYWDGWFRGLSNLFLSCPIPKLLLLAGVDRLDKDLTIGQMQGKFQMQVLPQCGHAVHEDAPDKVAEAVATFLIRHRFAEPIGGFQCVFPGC
UniProt P62714, whole entry, looked up: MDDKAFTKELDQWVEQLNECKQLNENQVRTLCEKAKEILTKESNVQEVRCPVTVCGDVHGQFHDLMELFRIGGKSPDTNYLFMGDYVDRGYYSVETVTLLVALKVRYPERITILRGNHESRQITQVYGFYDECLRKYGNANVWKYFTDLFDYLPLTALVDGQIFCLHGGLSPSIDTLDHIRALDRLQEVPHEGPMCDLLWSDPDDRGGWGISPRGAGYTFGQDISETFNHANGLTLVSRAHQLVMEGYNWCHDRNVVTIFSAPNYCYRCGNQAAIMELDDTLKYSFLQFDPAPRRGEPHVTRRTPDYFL
UniProt P62140, whole entry, looked up: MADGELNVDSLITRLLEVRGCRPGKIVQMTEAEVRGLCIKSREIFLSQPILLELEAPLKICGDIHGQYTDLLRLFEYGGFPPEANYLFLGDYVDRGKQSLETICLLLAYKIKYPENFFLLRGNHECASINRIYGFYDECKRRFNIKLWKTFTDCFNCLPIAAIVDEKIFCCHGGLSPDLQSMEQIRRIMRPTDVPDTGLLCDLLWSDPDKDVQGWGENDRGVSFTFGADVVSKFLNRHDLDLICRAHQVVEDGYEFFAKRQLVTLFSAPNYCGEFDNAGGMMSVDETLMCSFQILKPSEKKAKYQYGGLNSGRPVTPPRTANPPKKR
UniProt Q8TF05: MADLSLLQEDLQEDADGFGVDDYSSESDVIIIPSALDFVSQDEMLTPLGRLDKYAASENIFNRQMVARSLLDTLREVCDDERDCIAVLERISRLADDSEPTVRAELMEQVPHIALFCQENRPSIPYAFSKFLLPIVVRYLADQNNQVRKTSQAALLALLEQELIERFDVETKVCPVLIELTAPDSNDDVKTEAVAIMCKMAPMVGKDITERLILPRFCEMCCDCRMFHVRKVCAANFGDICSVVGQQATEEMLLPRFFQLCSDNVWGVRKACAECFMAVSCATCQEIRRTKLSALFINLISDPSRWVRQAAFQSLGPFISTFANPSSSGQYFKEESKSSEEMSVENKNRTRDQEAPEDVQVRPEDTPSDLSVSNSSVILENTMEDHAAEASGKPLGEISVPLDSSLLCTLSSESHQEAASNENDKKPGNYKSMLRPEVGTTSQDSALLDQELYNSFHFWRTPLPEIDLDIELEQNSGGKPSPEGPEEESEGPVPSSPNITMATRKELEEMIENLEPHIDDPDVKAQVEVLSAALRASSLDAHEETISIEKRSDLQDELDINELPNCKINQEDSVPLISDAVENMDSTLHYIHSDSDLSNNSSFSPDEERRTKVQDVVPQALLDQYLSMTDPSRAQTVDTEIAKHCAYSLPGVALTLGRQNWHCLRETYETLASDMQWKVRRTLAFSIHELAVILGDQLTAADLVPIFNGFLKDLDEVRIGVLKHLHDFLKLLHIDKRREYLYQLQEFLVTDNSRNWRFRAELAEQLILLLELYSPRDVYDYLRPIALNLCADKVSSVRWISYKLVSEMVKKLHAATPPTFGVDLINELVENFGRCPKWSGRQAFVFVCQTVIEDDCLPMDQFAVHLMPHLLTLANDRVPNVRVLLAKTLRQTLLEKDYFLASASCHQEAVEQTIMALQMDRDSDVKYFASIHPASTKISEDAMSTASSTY
UniProt P31321, whole entry, looked up: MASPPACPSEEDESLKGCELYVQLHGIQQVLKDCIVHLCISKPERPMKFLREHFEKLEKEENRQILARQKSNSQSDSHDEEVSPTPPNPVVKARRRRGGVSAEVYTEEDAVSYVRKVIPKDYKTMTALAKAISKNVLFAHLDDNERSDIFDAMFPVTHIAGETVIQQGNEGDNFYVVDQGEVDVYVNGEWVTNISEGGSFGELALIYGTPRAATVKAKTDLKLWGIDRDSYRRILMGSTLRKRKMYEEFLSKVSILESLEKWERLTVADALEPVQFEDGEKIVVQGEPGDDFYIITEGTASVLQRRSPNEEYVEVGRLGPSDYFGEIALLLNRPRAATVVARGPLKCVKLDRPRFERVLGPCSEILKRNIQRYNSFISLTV
UniProt Q9UPN7: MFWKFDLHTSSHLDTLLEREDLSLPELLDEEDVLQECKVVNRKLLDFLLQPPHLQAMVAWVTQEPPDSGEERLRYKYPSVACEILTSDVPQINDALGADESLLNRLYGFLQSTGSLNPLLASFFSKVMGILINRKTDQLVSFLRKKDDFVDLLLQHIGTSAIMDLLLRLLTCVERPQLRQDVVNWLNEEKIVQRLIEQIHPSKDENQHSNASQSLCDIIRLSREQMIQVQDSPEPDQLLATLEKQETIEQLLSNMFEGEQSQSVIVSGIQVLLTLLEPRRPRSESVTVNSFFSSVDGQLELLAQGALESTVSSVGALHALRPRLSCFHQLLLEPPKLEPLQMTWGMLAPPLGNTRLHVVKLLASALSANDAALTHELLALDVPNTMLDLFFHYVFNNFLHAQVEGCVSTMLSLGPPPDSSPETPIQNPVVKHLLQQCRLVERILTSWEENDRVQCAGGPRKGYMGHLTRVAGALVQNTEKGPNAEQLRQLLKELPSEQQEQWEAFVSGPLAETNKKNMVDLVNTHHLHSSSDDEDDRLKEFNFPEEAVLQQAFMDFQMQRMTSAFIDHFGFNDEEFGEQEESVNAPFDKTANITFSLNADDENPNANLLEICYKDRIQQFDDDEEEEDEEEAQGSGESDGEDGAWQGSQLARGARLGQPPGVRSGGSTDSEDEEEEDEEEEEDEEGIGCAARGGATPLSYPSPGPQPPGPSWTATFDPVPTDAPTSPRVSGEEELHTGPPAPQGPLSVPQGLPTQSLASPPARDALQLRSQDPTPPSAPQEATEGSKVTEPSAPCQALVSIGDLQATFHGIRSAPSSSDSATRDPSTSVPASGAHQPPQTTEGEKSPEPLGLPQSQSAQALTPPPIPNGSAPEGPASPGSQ

These targets were tested with c1cn2cc(-c3ccc4cn[nH]c4c3)nc(Nc3ccc(N4CCOCC4)cc3)c2n1 [entospletinib] (assay: log2 fold change, soluble protein after heating vs DMSO (PISA); higher = thermal stabilisation; K562 lysate, 10 uM; active = over 0.2 and 3.5 SD of the protein, either way, in both replicates (recomputed)).
Procedure, shortened: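 Dounce homogenisation of K562 pellets in PBS pH 7.4 with 1 mM MgCl2 produced a crude extract, used at 1 mg/mL protein. Exposure to 10 μM compound lasted 30 min, and aliquots were then heated for 3 min across 48°C-58°C, pooled and brought to 0.5% NP-40 at 4°C. The supernatant after 21,000xg for 90 min was quantified by TMTpro 16plex LC-MS/MS with channel sums equalised. Duplicate values are given as log-two fold change in thermal stability relative to solvent controls.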

log2 fold change, inactive:
PRKD2 isoform 3 (UniProt Q9BZL6) 0.052, PPP1R12C isoform 4 (UniProt Q9BZL4) -0.013, PPP5C (UniProt P53041) 0.009, PRKCSH (UniProt P14314) 0.001, PPM1H (UniProt Q9ULR3) -0.002, PPP2R5E (UniProt Q16537) 0.001, PPP2R1A (UniProt P30153) 0.002, PRPF18 (UniProt Q99633) -0.009, PPP1R14A (UniProt Q96A00) 0.034, PRKCA (UniProt P17252) 0.018, PROSER2 (UniProt Q86WR7) 0.041, PRDX2 (UniProt P32119) 0.019, PPIG (UniProt Q13427) -0.038, PPP4C (UniProt P60510) 0.013, PPP3CC (UniProt P48454) 0.05, PPME1 isoform 4 (UniProt Q9Y570) 0.031, PRAME (UniProt P78395) 0.048, PPIL1 (UniProt Q9Y3C6) 0, PPP2CB (UniProt P62714) -0.013, PPP1CB (UniProt P62140) 0.002, PPM1F (UniProt P49593) -0.007, PPP1R9B (UniProt Q96SB3) 0.018, PPP2R5B (UniProt Q15173) 0.028, PRPF31 (UniProt Q8WWY3) 0.027, PPP4R1 (UniProt Q8TF05) -0.014, PRPF19 (UniProt Q9UMS4) 0.007, PRKAR1B (UniProt P31321) 0.009, PPP6C isoform 3 (UniProt O00743) 0.001, PPP6R1 (UniProt Q9UPN7) 0.045, PPWD1 (UniProt Q96BP3) -0.006, PPIF (UniProt P30405) -0.013, PRKAR2B (UniProt P31323) -0.055
